Source: the supplement of paper PMC4604168 (melanoma cell lines)
The other results are listed elsewhere or left out. Many values rest on one well or one pass, so single values are uncertain.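 Cells were imaged in 1,536-well plates, and nuclei stained with an antibody against cleaved PARP were counted against all DNA-stained nuclei to give the apoptosis fraction. Screening doses were chosen to leave most cells alive, and resting and induced cleaved-PARP levels differ strongly between cell lines.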

Key:
Experiment in all cases: cleaved PARP positive nuclei fraction relative to DMSO control; melanoma cells; higher = more apoptosis
Conditions in all cases: library dose: low library concentration; 72 h
WM115 = test system: WM115
WM1716 = test system: WM1716
WM1745 = test system: WM1745
WM3526 = test system: WM3526
WM3619 = test system: WM3619
WM451Lu = test system: WM451Lu

Row | Compound | cleaved PARP positive nuclei fraction (WM115) | cleaved PARP positive nuclei fraction (WM1716) | cleaved PARP positive nuclei fraction (WM1745) | cleaved PARP positive nuclei fraction (WM3526) | cleaved PARP positive nuclei fraction (WM3619) | cleaved PARP positive nuclei fraction (WM451Lu)
1 | Cn1nnc2c(C(N)=O)ncn2c1=O [temozolomide] + CC(C)(C)c1cnc(CSc2cnc(NC(=O)C3CCNCC3)s2)o1 [SNS-032] (first compound 2 µM, partner dose 0.01 µM) | 114% | 101% | 89.4% | 132% | 112% | 60.9%
2 | Cc1nc(Nc2ncc(C(=O)Nc3c(C)cccc3Cl)s2)cc(N2CCN(CCO)CC2)n1 [dasatanib] + CC(C)CCN1c2nc(Nc3cc(F)c(O)c(F)c3)ncc2N(C)C(=O)C1C [BID1870] (first compound 0.004 µM, partner dose 0.2 µM) | 217% | 154% | 136% | 387% | 94.2% | 60%
3 | C#Cc1cccc(Nc2ncnc3cc(OCCOC)c(OCCOC)cc23)c1 [erlotinib] + Cn1cncc1[C@@](N)(c1ccc(Cl)cc1)c1ccc2c(c1)c(-c1cccc(Cl)c1)cc(=O)n2C [tipifarnib] (first compound 0.8 µM, partner dose 0.01 µM) | 81.8% | 125% | 110% | 65.5% | 125% | 120%
4 | CC(C)(C)c1cnc(CSc2cnc(NC(=O)C3CCNCC3)s2)o1 + Cn1cc(/C=C2\C(=O)Nc3cccnc32)c2ccccc21 [GW441756] (first compound 0.01 µM, partner dose 0.4 µM) | 94.5% | 115% | 116% | 174% | 82.5% | 82.7%
5 | COc1cc(Nc2ncc(F)c(Nc3ccc4c(n3)NC(=O)C(C)(C)O4)n2)cc(OC)c1OC [Tamatinib] + c1cc(-c2cnn3cc(-c4ccc(OCCN5CCCCC5)cc4)cnc23)ccn1 [Dorsomorphin] (first compound 0.4 µM, partner dose 0.4 µM) | 156% | 98.4% | 196% | 97.8% | 88% | 62.8%
6 | CC1(C)NC(=O)N(c2ccc([N+](=O)[O-])c(C(F)(F)F)c2)C1=O [nilutamide] + COc1cc2ncnc(Nc3ccc(Oc4ccccc4)cc3)c2cc1OC [SrcI1] (first compound 1 µM, partner dose 2 µM) | 134% | 61.9% | 207% | 72.9% | 75.8% | 47.8%
7 | C=CCNC1=C2C[C@@H](C)C[C@H](OC)[C@H](O)[C@@H](C)/C=C(\C)[C@H](OC(N)=O)[C@@H](OC)/C=C\C=C(/C)C(=O)NC(=CC1=O)C2=O [Tanespimycin] + O=C(CCCCCCC(=O)Nc1ccccc1)NO [vorinostat] (first compound 0.002 µM, partner dose 0.08 µM) | 97.9% | 56.6% | 114% | 43.2% | 225% | 120%
8 | C=CCNC1=C2C[C@@H](C)C[C@H](OC)[C@H](O)[C@@H](C)/C=C(\C)[C@H](OC(N)=O)[C@@H](OC)/C=C\C=C(/C)C(=O)NC(=CC1=O)C2=O [Tanespimycin] + COc1ccc(Cl)c(Nc2nc3ccccc3nc2NS(=O)(=O)c2cccc(NC(=O)C(C)(C)N)c2)c1 [XL147] (first compound 0.002 µM, partner dose 0.8 µM) | 159% | 114% | 108% | 48.5% | 145% | 64.6%
9 | COCC[n+]1c2c(n(Cc3cnccn3)c1C)C(=O)c1ccccc1C2=O + O=S(=O)(c1ccccc1)N(CC(F)(F)F)c1ccc(C(O)(C(F)(F)F)C(F)(F)F)cc1 [T0901317] (first compound 0.0004 µM, partner dose 1.4 µM) | 92.1% | 73.4% | 134% | 66.8% | 76.4% | 144%
10 | C=CCNC1=C2C[C@@H](C)C[C@H](OC)[C@H](O)[C@@H](C)/C=C(\C)[C@H](OC(N)=O)[C@@H](OC)/C=C\C=C(/C)C(=O)NC(=CC1=O)C2=O [Tanespimycin] + O=C(O)C(=O)Nc1sc2c(c1C(=O)O)CCNC2 [TCS401] (first compound 0.002 µM, partner dose 1.66667 µM) | 125% | 253% | 102% | 165% | 79.1% | 35.2%
11 | O=C(CCCCCCC(=O)Nc1ccccc1)NO [vorinostat] + CCN(CC)CCCCNc1ncc2cc(-c3cc(OC)cc(OC)c3)c(NC(=O)NC(C)(C)C)nc2n1 [PD173074] (first compound 0.08 µM, partner dose 0.1 µM) | 115% | 85.4% | 96.1% | 134% | 193% | 214%
12 | C#Cc1cccc(Nc2ncnc3cc(OCCOC)c(OCCOC)cc23)c1 [erlotinib] + Oc1cc(-c2nc(-c3ccccc3)[nH]c2-c2ccncc2)ccc1Cl [L779450] (first compound 0.8 µM, partner dose 0.2 µM) | 78.8% | 114% | 135% | 93.1% | 133% | 58.5%
13 | CC1(C)NC(=O)N(c2ccc([N+](=O)[O-])c(C(F)(F)F)c2)C1=O [nilutamide] + C=CCn1c(=O)c2cnc(Nc3ccc(N4CCN(C)CC4)cc3)nc2n1-c1cccc(C(C)(C)O)n1 [MK1775] (first compound 1 µM, partner dose 0.02 µM) | 197% | 128% | 108% | 52.8% | 104% | 103%
14 | COCC[n+]1c2c(n(Cc3cnccn3)c1C)C(=O)c1ccccc1C2=O + Cn1cc(/C=C2\C(=O)Nc3cccnc32)c2ccccc21 [GW441756] (first compound 0.0004 µM, partner dose 0.4 µM) | 115% | 112% | 96.3% | 69.5% | 299% | 74%
15 | C[C@]1(c2nc3c(C(N)=O)cccc3[nH]2)CCCN1 [Veliparib] + O=C(O)C(=O)Nc1sc2c(c1C(=O)O)CCNC2 [TCS401] (first compound 1.4 µM, partner dose 1.66667 µM) | 162% | 99.6% | 122% | 65.6% | 94.1% | 49.6%
16 | O=C(Nc1cccc(Cl)c1)Nc1ncc(CCNc2ncnc3ccsc23)s1 + O=C1NC(=O)/C(=C/c2ccc(-c3ccc(F)cc3O)o2)S1 [AS252424] (first compound 0.0008 µM, partner dose 1 µM) | 62% | 63.1% | 77.4% | 81.2% | 87.1% | 53.3%
17 | Clc1ccc(Nc2nnc(Cc3ccncc3)c3ccccc23)cc1 [vatalanib] + CO[C@@H]1[C@H](N(C)C(=O)c2ccccc2)C[C@H]2O[C@]1(C)n1c3ccccc3c3c4c(c5c6ccccc6n2c5c31)C(=O)NC4 [Midostaurin] (first compound 2 µM, partner dose 0.08 µM) | 119% | 225% | 112% | 64% | 150% | 544%
18 | C[C@@H]1CCN(C(=O)CC#N)C[C@@H]1N(C)c1ncnc2[nH]ccc12 + O=C(O)c1ccc(-c2c[nH]c3ncc(-c4ccccc4)cc23)cc1C1CCCC1 [GSK650394] (first compound 1 µM, partner dose 0.16 µM) | 98% | 76.1% | 90.6% | 64.8% | 112% | 105%
19 | Nc1cccc2c1CN(C1CCC(=O)NC1=O)C2=O (stereo not given) [lenalidomide] + Cn1cncc1[C@@](N)(c1ccc(Cl)cc1)c1ccc2c(c1)c(-c1cccc(Cl)c1)cc(=O)n2C [tipifarnib] (first compound 1 µM, partner dose 0.01 µM) | 73.1% | 181% | 216% | 74.7% | 109% | 169%
20 | COCC[n+]1c2c(n(Cc3cnccn3)c1C)C(=O)c1ccccc1C2=O + COc1cc(Nc2ncc(F)c(Nc3ccc4c(n3)NC(=O)C(C)(C)O4)n2)cc(OC)c1OC [Tamatinib] (first compound 0.0004 µM, partner dose 0.4 µM) | 69.3% | 69.9% | 131% | 133% | 96.5% | 140%
21 | CC1(C)NC(=O)N(c2ccc([N+](=O)[O-])c(C(F)(F)F)c2)C1=O [nilutamide] + C[C@@H]1CCN(C(=O)CC#N)C[C@@H]1N(C)c1ncnc2[nH]ccc12 [CP690550] (first compound 1 µM, partner dose 1 µM) | 97.8% | 52.2% | 96.8% | 32.8% | 84.5% | 878%
22 | Cn1nnc2c(C(N)=O)ncn2c1=O [temozolomide] + O=C(CCCCCCC(=O)Nc1ccccc1)NO [vorinostat] (first compound 2 µM, partner dose 0.08 µM) | 59.4% | 81.8% | 87.7% | 154% | 107% | 64.3%
23 | CO[C@@H]1[C@H](N(C)C(=O)c2ccccc2)C[C@H]2O[C@]1(C)n1c3ccccc3c3c4c(c5c6ccccc6n2c5c31)C(=O)NC4 [Midostaurin] + O=c1cc(-c2cccc3c2Sc2ccccc2S3)oc(N2CCOCC2)c1 [KU55933] (first compound 0.08 µM, partner dose 1 µM) | 79.7% | 159% | 158% | 69.5% | 126% | 161%
24 | C[C@@H]1CCN(C(=O)CC#N)C[C@@H]1N(C)c1ncnc2[nH]ccc12 + NCC(=O)Nc1ccc(-n2nc(C(F)(F)F)cc2-c2ccc3c(ccc4ccccc43)c2)cc1 [OSU03012] (first compound 1 µM, partner dose 1 µM) | 76.4% | 97.1% | 98.2% | 278% | 97.4% | 73.3%
25 | C=CCn1c(=O)c2cnc(Nc3ccc(N4CCN(C)CC4)cc3)nc2n1-c1cccc(C(C)(C)O)n1 + Oc1cc(-c2nc(-c3ccccc3)[nH]c2-c2ccncc2)ccc1Cl [L779450] (first compound 0.02 µM, partner dose 0.2 µM) | 90.5% | 121% | 127% | 98.5% | 127% | 126%

As entered above.
cleaved PARP positive nuclei fraction (WM3619) with Cn1nnc2c(C(N)=O)ncn2c1=O [temozolomide] + O=C(CCCCCCC(=O)Nc1ccccc1)NO [vorinostat] (first compound 2 µM, partner dose 0.08 µM) is entered as 107%
cleaved PARP positive nuclei fraction (WM451Lu) with COCC[n+]1c2c(n(Cc3cnccn3)c1C)C(=O)c1ccccc1C2=O + Cn1cc(/C=C2\C(=O)Nc3cccnc32)c2ccccc21 [GW441756] (first compound 0.0004 µM, partner dose 0.4 µM) is entered as 74%
